In paper PMC3991886:
Construct, isoform or probe ends are uncertain for at least one entry. At least one verdict was read from the data and is not stated in words by the source. For some assays here: Where a protein sequence is shown, tags need not be part of it.

Chains of the proteins cited; added tags and fusions are not shown. Lines headed by an entry give the natural chain unless they say otherwise; changes in a name come on top.
UniProt P0AGE0: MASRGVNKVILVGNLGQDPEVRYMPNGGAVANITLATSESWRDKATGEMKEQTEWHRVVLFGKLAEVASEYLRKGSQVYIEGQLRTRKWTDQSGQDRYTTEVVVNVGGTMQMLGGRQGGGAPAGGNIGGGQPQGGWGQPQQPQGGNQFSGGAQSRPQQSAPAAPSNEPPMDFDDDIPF

How the values were obtained:
Assay in all cases: EMSA
[1] = target: T1, PtoSSB (Psychroflexus torquis ATCC 700755 (LMG 21429)) (UniProt K4IS14); conditions: EMSA: 20 mM Tris-HCl pH 8.0, 100 mM NaCl, 1 mM EDTA, 25 C, 2% agarose in TAE, recombinant protein, residues 1-151, label: 5'-fluorescein, single-stranded DNA
T1 sequence (looked up): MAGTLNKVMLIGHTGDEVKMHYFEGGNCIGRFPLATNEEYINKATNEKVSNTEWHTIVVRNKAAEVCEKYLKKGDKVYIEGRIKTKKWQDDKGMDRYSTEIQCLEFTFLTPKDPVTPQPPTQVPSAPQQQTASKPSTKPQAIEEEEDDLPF

[2] = target: T2, PprSSB (Photobacterium profundum (LMG 19446)) (UniProt Q6LM83); conditions: EMSA: 20 mM Tris-HCl pH 8.0, 100 mM NaCl, 1 mM EDTA, 25 C, 2% agarose in TAE, recombinant protein, label: 5'-fluorescein, single-stranded DNA
T2 sequence (looked up, limits assumed): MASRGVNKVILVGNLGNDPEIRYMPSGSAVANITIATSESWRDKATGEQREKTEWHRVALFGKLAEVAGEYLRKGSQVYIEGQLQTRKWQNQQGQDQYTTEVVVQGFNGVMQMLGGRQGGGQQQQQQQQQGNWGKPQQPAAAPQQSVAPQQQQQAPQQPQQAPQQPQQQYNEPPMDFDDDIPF

[3] = target: EcoSSB (Escherichia coli) (UniProt P0AGE0); conditions: after heat treatment, 50% activity left after 15 min at 100 C; EMSA: 20 mM Tris-HCl pH 8.0, 100 mM NaCl, 1 mM EDTA, 25 C, 2% agarose in TAE; recombinant …; label: 5'-fluorescein; single-stranded DNA

What does the source list for “TTTTTTTTTTTTTTTTTTTTTTTTTTTTTTTTTTTTTTTTTTTTTTTTTTTTTTTTTTTTTTTTTTTTTTTTTTTT [(dT)76 fluorescein]”?
binding result ([1]; complexes I and II): binds; binding result ([2]; complexes I and II): binds

Which results are given for “TTTTTTTTTTTTTTTTTTTTTTTTTTTTTTTTTTTTTTTTTTTTTTTTTTTTTTTTTTTTTTTTTTTTTTTTTTTTTTTTTTTTTTTTTTTTTTTTTTTTTTTTTTTTTTTTTTTTTTTT [(dT)120]”?
binding result ([1]; complexes I-III): binds; binding result ([2]; complexes I-III): binds

Does “TTTTTTTTTTTTTTTTTTTTTTTTTTTTTTTTTTT [(dT)35]” bind [3]?
Result: binds
